No constants are given. Whether binding was seen depends on the method and setting. In cells and extracts the contact can be indirect. Binding can be weak; no strength is given.
What was measured:
[1] = molecular target: Zif Zinc-finger protein (ZIF, also called CG10267) (D. melanogaster) (UniProt Q9VI24); experiment: pull-down; modified LUMIER/LuMPIS: one partner fused to MBP, the other to Renilla luciferase, each made in a purified prokaryotic in vitro expression system and then combined; IP buffer (150 mM NaCl, 50 mM Tris pH 7.4), 4°C, 2 h; MBP-tagged protein isolated on amylose resin blocked with 5 percent BSA; luciferase retained relative to unfused luc gives the luminescence intensity ratio (LIR), cutoff 7 for positive; each pair in both configurations; duplicates
[2] = molecular target: Distal-less (DLL) (D. melanogaster) (UniProt P20009); experiment: as above

The chains behind the UniProt entries cited, without tags or fusion partners.
UniProt P20009: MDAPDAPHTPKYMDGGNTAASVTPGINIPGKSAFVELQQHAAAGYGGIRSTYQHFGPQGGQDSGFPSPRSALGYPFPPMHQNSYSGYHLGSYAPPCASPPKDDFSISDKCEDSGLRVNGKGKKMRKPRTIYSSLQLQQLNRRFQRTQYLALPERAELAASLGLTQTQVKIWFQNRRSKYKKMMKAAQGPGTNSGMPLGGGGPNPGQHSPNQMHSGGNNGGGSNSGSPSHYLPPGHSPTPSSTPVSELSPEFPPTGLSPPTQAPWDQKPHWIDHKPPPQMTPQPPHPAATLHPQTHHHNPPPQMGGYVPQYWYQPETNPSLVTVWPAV

Row | binding [1] | binding [2] | Substance
1 | binds |  | Distal-less (DLL) (from UniProt P20009 1-327)
2 |  | binds | Zif Zinc-finger protein (ZIF, also called CG10267) (from UniProt Q9VI24)

Source: article PMC3731213
